PubChem BioAssay AID504808 | Drosophila RNAi Screening Center – 2011
In all, the deposit lists about 21,000 reagents; this is an unselected part of those with a known target gene and a result. Over the whole deposit, 18 (0.084%) are marked active. 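Raw counts without plate normalisation, one of two replicates; the ratio scores behind the calls were not deposited.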 Names joined by + are all predicted targets of the reagent. Not stated in the record: the amount of reagent, the time to read-out.

Purpose: 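Chromatin factors that keep E2F targets switched off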 (primary screen)
System: Drosophila S2 cells
Reagents: long dsRNA against Drosophila genes
Measured: 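Firefly luciferase driven by E2F sites, normalised to Renilla luciferase on the same minimal promoter, measured by plate reader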
Scale: E2F firefly: higher = more E2F reporter activity; Renilla normaliser: higher = more normaliser reporter signal
Rule for the call: 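Called active if the normalised E2F reporter went up by over 50%; the cutoff is arbitrary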

Gene	dsRNA	E2F firefly, rep 1	Renilla normaliser, rep 1	call
CG11018	DRSC06024	77762	3238	inactive
CG5070	DRSC19932	1.49e5	7141	inactive
CG34452	DRSC09387	1.35e5	4260	inactive
CG34046 (retired record)	DRSC14075	81394	2396	inactive
CG32237	DRSC08312	1.03e5	4571	inactive
CG32237	DRSC08315	97801	4125	inactive
CG3407	DRSC00603	69865	4065	inactive
exex	DRSC10972	86631	3722	inactive
GAPcenA	DRSC10771	87981	3639	inactive
CG13566	DRSC04203	92791	4190	inactive
CG42362 + CG42363	DRSC04265	83640	3360	inactive
CG5191	DRSC15733	66471	3340	inactive
CG5191	DRSC15734	1.41e5	7197	inactive
CG31952	DRSC00428	1.40e5	5035	inactive
Sgs7	DRSC11281	1.30e5	7119	inactive
Sting	DRSC06615	1.35e5	4892	inactive
CG15142	DRSC02443	1.10e5	4499	inactive
osk	DRSC17023	62017	3464	inactive
Hyccin	DRSC06983	70469	3862	inactive
Dim1	DRSC00563	1.23e5	5801	inactive
CG10674	DRSC09775	93095	3987	inactive
ND-B14.5AL	DRSC11795	1.34e5	5771	inactive
Naa35	DRSC04447	76212	3698	inactive
RpS27	DRSC14244	60829	5268	inactive
Non3	DRSC16359	63290	3972	inactive
Ir85a	DRSC14382	1.20e5	6490	inactive
CG8042	DRSC09676	67593	3888	inactive
Crag	DRSC18454	8023	720	inactive
CG11537	DRSC08200	80978	3152	inactive
Vps29	DRSC00666	78655	3404	inactive
CG9372	DRSC11068	1.14e5	6446	inactive
CG9399	DRSC16488	1.48e5	6808	inactive
stet	DRSC08246	98945	4336	inactive
stet	DRSC08283	1.03e5	3891	inactive
Ekar	DRSC17161	46044	3710	inactive
babos	DRSC03923	1.33e5	4879	inactive
babos	DRSC04397	81024	3379	inactive
CG32833	DRSC04596	81094	3487	inactive
CG12253	DRSC02153	79027	3259	inactive
CG11145	DRSC06049	1.38e5	4737	inactive
CG33655	DRSC03858	1.10e5	3904	inactive
Ptx1	DRSC16804	1.25e5	6770	inactive
CG8677	DRSC03107	83412	3528	inactive
CG42675	DRSC12157	79931	3708	inactive
CG5568	DRSC10518	70927	3221	inactive
CG13748	DRSC06419	1.35e5	4331	inactive
CG9281	DRSC20179	8564	716	inactive
CG3225	DRSC00578	1.00e5	4864	inactive
CG2898	DRSC18238	65338	4849	inactive
eIF2alpha	DRSC20327	1.62e5	7331	inactive
CG32022	DRSC09678	1.10e5	3897	inactive
CG10737	DRSC05999	64750	3130	inactive
spn-F	DRSC14475	1620	992	inactive
RluA-1	DRSC02240	1.56e5	5686	inactive
RluA-1	DRSC03060	1.52e5	5018	inactive
JMJD5	DRSC08372	1.05e5	4364	inactive
schuy	DRSC10284	1.30e5	6484	inactive
Cpr65Ax2 + Cpr65Ax1	DRSC10341	1.04e5	4390	inactive
Cpr65Ax2 + Cpr65Ax1	DRSC10344	1.11e5	4279	inactive
Gr59c	DRSC04185	1.00e5	4036	inactive
CG13102	DRSC02202	1.45e5	4927	inactive
Nepl16	DRSC14650	1.01e5	6024	inactive
IntS1	DRSC04343	1.09e5	3738	inactive
CG31717	DRSC01121	1.35e5	6593	inactive
CG10300	DRSC14225	1.22e5	5908	inactive
CG6614	DRSC02974	82502	3644	inactive
CG32483	DRSC07902	1.29e5	4451	inactive
CG30114	DRSC05707	1.60e5	5140	inactive
ND-B8	DRSC00449	1.54e5	5398	inactive
Grip128	DRSC20167	8128	892	inactive
CG30034 (retired record)	DRSC05288	1.26e5	4812	inactive
Ir48a	DRSC05301	1.29e5	4601	inactive
Sara	DRSC04653	1.06e5	4513	inactive
Cyp313a1	DRSC16624	1.19e5	6328	inactive
sv	DRSC17221	55869	4224	inactive
CG9410 + CG15908	DRSC04976	1.01e5	3959	inactive
CG9410 + CG15908	DRSC05001	1.07e5	3833	inactive
CG30053	DRSC07260	93246	3282	inactive
CG6602	DRSC10673	1.10e5	4367	inactive
inaF-B	DRSC18903	85831	3408	inactive
CG14190	DRSC19545	1.40e5	6022	inactive
Cht5	DRSC16470	78551	3379	inactive
Atx2	DRSC15727	52151	3486	inactive
CG43317	DRSC15000	1.14e5	6587	inactive

Already shown: 9 of the entries above.
Gene	dsRNA	E2F firefly, rep 1	Renilla normaliser, rep 1	call
CG34452	DRSC09387	1.35e5	4260	inactive
CG34046 (retired record)	DRSC14075	81394	2396	inactive
CG32237	DRSC08312	1.03e5	4571	inactive
CG32237	DRSC08315	97801	4125	inactive
CG3407	DRSC00603	69865	4065	inactive
exex	DRSC10972	86631	3722	inactive
GAPcenA	DRSC10771	87981	3639	inactive
CG13566	DRSC04203	92791	4190	inactive
CG42362 + CG42363	DRSC04265	83640	3360	inactive
